Results on one substance are retold here after paper PMC10320870.

Protein sequences, listed by entry. Tags and fused reporters are not part of them.
UniProt P18850: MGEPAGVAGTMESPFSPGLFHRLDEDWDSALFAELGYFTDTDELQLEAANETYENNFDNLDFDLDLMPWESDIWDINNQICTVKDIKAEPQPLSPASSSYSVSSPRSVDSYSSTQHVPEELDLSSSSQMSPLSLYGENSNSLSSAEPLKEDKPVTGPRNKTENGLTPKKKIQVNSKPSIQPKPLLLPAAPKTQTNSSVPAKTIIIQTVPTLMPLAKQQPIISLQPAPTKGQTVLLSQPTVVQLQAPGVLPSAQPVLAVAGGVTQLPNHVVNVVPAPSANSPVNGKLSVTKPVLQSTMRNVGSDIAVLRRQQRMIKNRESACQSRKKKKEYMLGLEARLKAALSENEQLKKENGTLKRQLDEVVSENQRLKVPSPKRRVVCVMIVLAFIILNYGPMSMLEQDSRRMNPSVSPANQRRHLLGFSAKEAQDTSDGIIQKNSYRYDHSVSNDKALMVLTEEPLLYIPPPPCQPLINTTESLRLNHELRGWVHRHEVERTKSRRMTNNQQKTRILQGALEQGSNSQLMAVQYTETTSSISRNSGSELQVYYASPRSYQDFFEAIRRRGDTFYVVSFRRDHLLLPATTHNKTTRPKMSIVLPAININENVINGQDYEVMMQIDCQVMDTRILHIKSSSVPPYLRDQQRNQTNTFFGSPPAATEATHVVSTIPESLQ

These are yes or no findings as the source states them, for the method shown. In cells and extracts the contact can be indirect. Some results given as binding are weak or reduced against the parent protein; the word gives no strength. For some assays here: Tags and fused reporters may be left off the sequences shown.

Assay [1] has as its target T1, protocadherin 20 (PCDH20), endogenous (human (endogenous in Caco-2)) (UniProt Q8N6Y1).
T1 sequence: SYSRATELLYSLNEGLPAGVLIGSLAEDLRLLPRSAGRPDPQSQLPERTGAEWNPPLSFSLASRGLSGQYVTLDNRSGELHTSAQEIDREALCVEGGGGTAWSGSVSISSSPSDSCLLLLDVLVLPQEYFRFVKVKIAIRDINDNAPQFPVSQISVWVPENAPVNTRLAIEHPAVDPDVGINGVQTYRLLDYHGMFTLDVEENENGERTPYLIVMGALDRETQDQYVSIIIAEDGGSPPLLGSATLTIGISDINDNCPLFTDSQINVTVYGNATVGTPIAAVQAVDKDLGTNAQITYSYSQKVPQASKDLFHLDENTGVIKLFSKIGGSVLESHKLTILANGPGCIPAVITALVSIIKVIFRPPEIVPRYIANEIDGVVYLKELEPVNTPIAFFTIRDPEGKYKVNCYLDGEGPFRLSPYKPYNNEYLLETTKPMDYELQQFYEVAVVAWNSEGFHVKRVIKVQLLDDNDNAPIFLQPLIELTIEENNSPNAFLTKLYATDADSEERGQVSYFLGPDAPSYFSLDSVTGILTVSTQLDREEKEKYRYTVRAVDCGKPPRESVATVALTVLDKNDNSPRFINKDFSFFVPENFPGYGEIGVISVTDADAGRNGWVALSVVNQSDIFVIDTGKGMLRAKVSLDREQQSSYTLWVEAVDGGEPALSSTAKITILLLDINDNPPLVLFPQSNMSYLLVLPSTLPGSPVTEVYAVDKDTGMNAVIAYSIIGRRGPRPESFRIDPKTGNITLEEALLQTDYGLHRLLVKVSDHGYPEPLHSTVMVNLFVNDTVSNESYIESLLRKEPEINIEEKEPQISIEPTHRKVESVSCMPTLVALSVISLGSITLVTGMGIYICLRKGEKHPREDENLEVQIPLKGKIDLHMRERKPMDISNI
The assay can be described thus: co-IP; lysate of Caco-2 cells without any treatment (endogenous proteins); antibody-coupled NHS-activated magnetic beads, overnight at 4 °C; western blot. (A western blot detects proteins with antibodies after separation by electrophoresis.)

For assay [2], the target named is T2, flag-tagged PCDH20 (protocadherin 20) (UniProt Q8N6Y1).
T2 sequence: T1 sequence
The assay can be described thus: co-IP; lysate (750 ug protein) of flag-tagged PCDH20-overexpressing Caco-2 cells; antibodies against Flag or ATF6 (controls rabbit IgG, mouse IgG1 kappa) coupled to NHS-activated magnetic beads, overnight at 4 °C; western blot.

As for “activating transcription factor 6 (ATF6) (from UniProt P18850 1-670)”, the binding result in assay [1] and in assay [2] was “binds” throughout.
